## Melanoma cell counts after drug treatment

Values as published with doi:10.1371/journal.pone.0140310, rounded.

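Human melanoma cell lines in 1,536-well plates were treated with two drugs together for 72 h, then fixed, stained and imaged. Values are the number of DAPI-stained nuclei as a percentage of the DMSO control: 100 is no effect, lower means fewer cells. Every drug was used at one fixed concentration, the lower of two screened (a fifth of the higher). The file gives one value for each pair and line, without errors, so small differences may be noise.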 An unselected part of the screen is shown. An entry leaves out what has no value listed here.

Compounds and concentrations:
PF-04217903, 1000 nM: OCCn1cc(-c2cnc3nnn(Cc4ccc5ncccc5c4)c3n2)cn1
AS-252424, 1000 nM: O=C1NC(=O)/C(=C/c2ccc(-c3ccc(F)cc3O)o2)S1
lapatinib, 800 nM: CS(=O)(=O)CCNCc1ccc(-c2ccc3ncnc(Nc4ccc(OCc5cccc(F)c5)c(Cl)c4)c3c2)o1
gemcitabine, 0.4 nM: Nc1ccn([C@@H]2O[C@H](CO)[C@@H](O)C2(F)F)c(=O)n1
erlotinib, 800 nM: C#Cc1cccc(Nc2ncnc3cc(OCCOC)c(OCCOC)cc23)c1
sorafenib, 400 nM: CNC(=O)c1cc(Oc2ccc(NC(=O)Nc3ccc(Cl)c(C(F)(F)F)c3)cc2)ccn1
veliparib, 1400 nM: C[C@]1(c2nc3c(C(N)=O)cccc3[nH]2)CCCN1
A-769662, 2000 nM: N#Cc1c(O)c2c(-c3ccc(-c4ccccc4O)cc3)csc2[nH]c1=O
tozasertib, 6 nM: Cc1cc(Nc2cc(N3CCN(C)CC3)nc(Sc3ccc(NC(=O)C4CC4)cc3)n2)n[nH]1
GSK0660, 1000 nM: COC(=O)c1sccc1S(=O)(=O)Nc1ccc(Nc2ccccc2)cc1OC
etoposide, 20 nM: COc1cc([C@@H]2c3cc4c(cc3[C@@H](O[C@@H]3O[C@@H]5CO[C@@H](C)O[C@H]5[C@H](O)[C@H]3O)[C@H]3COC(=O)[C@H]23)OCO4)cc(OC)c1O
BI-78D3, 200 nM: O=c1[nH]nc(Sc2ncc([N+](=O)[O-])s2)n1-c1ccc2c(c1)OCCO2
nilotinib, 200 nM: Cc1cn(-c2cc(NC(=O)c3ccc(C)c(Nc4nccc(-c5cccnc5)n4)c3)cc(C(F)(F)F)c2)cn1
ENMD-2076, 40 nM: Cc1cc(Nc2cc(N3CCN(C)CC3)nc(/C=C/c3ccccc3)n2)n[nH]1
nutlin-3, 100 nM: COc1ccc(C2=N[C@@H](c3ccc(Cl)cc3)[C@@H](c3ccc(Cl)cc3)N2C(=O)N2CCNC(=O)C2)c(OC(C)C)c1
fludarabine, 200 nM: Nc1nc(F)nc2c1ncn2[C@@H]1O[C@H](CO)[C@@H](O)[C@@H]1O
bexarotene, 2000 nM: C=C(c1ccc(C(=O)O)cc1)c1cc2c(cc1C)C(C)(C)CCC2(C)C
ABT-263, 400 nM: CC1(C)CCC(c2ccc(Cl)cc2)=C(CN2CCN(c3ccc(C(=O)NS(=O)(=O)c4ccc(N[C@H](CCN5CCOCC5)CSc5ccccc5)c(S(=O)(=O)C(F)(F)F)c4)cc3)CC2)C1
FH535, 1000 nM: Cc1cc([N+](=O)[O-])ccc1NS(=O)(=O)c1cc(Cl)ccc1Cl
KU-0063794, 20 nM: COc1ccc(-c2ccc3c(N4CCOCC4)nc(N4C[C@@H](C)O[C@@H](C)C4)nc3n2)cc1CO

Results for etoposide + tozasertib are A375: 100; A2058: 93.8; A101D: 90.3; C32: 93.3. For PF-04217903 + ABT-263 the values were A375: 90.5; A2058: 96.9; A101D: 66.3; C32: 69.8. Results for FH535 + AS-252424 are A375: 96.4; A2058: 103; A101D: 82.4; C32: 93.9. Results for BI-78D3 + gemcitabine are A375: 94.0; A2058: 98.0; A101D: 106; C32: 92.1.

For GSK0660 + KU-0063794 the values were A375: 102; A2058: 93.0; A101D: 98.5; C32: 97.3. For lapatinib + bexarotene the values were COLO 792: 81.8; A375: 89.7; A2058: 93.8; A101D: 110; C32: 89.3. Results for nutlin-3 + BI-78D3 are A375: 92.6; A2058: 107; A101D: 90.7; C32: 96.4. ENMD-2076 + tozasertib gave A375: 89.4; A2058: 97.8; A101D: 82.8; C32: 114.

For lapatinib + fludarabine the values were A375: 20.5; A2058: 79.6; A101D: 95.7; C32: 110. With nilotinib + BI-78D3 the screen read A375: 102; A2058: 99.1; A101D: 107; C32: 82.4. For fludarabine + tozasertib the values were A375: 12.7; A2058: 83.5; A101D: 103; C32: 86.9. sorafenib + fludarabine gave COLO 792: 113; A375: 34.4; A2058: 83.9; A101D: 102; C32: 84.2.

GSK0660 + A-769662 gave A375: 94.8; A2058: 104; A101D: 121; C32: 116. For erlotinib + sorafenib the values were COLO 792: 101; A375: 81.4; A2058: 96.5; A101D: 107; C32: 84.2. Results for PF-04217903 + veliparib are A375: 86.8; A2058: 84.5; A101D: 74.4; C32: 97.9.

Once more, the final 2:

* erlotinib + sorafenib : COLO 792: 101; A375: 81.4; A2058: 96.5; A101D: 107; C32: 84.2
* PF-04217903 + veliparib : A375: 86.8; A2058: 84.5; A101D: 74.4; C32: 97.9